The text below walks through data of patent publication US8367737B2, “Method of using biothionol and biothionol-like compounds as anti-angiogenic agents” (Southern Research Institute, priority 2007, dated 2013).

Holding throughout (type): cell-based
Assay [1] relates to arterial endothelia, such as HAEC and HPAEC. Kind of assay: Cell proliferation assay (CellTiter-Glo), arterial endothelia. As to conditions: Homo sapiens; 72 hours of treatment, growth medium. The protocol: (§1) Human primary cell lines, arterial endothelia, such as HAEC and HPAEC, venous endothelia HUVEC (from Cambrex BioScience Rockland Inc.), and lung fibroblasts LL47 (from the American Type Culture Collection) are cultured by following the instruction and used to evaluate the target compounds for their differential activity against human endothelia verses fibroblasts by CellTiter-Glo Luminescent Cell viability Assay. This assay, generating luminescent signals, is based on quantification of ATP levels in cell cultures. Amount of ATP produced in cell culture reflects the number of viable cells. […] Cells are seeded in 96-well plates with their growth medium, about 5×10^3 cell per well. After 24 hours, various doses of the target compounds are added to the cultures, having four replicates for each dose. After 72 hours of treatment, CellTiter-Glo reagent is added to the cultures following the manufacturer's instruction and luminescence is measured. The control groups are given DMSO vehicle only. IC50s of target compounds for endothelia and fibroblasts proliferation in their growth medium are determined based on the dose response curve and plotted against the range of concentrations.

A further assay concerns venous endothelia HUVEC. The assay is described as follows: Cell proliferation assay (CellTiter-Glo), venous endothelia. As to conditions: Homo sapiens, 72 hours of treatment, growth medium. The protocol: as §1
(In general: In ATP-based viability assays light output follows the ATP content of the culture.)

The test system of a further assay is lung fibroblasts LL47. Kind of assay: Cell proliferation assay (CellTiter-Glo), fibroblasts. As to conditions: Homo sapiens, Fibroblast; 72 hours of treatment, growth medium. The protocol: as §1

Structures are written as SMILES. Where a name gives a salt, the structure may show the parent alone.

As for `CCCCc1oc2ccccc2c1C(=O)c1cc(I)c(OCCN(CC)CC)c(I)c1` [Amiodarone hydrochloride], the IC50 in assay [1] stood at 7.5 µM; in the assay on venous endothelia HUVEC, 8.8 µM.

As to `CN(C)CCCN1c2ccccc2CCc2ccc(Cl)cc21` [Clomipramine hydrochloride], the IC50 came out at 10.8 µM in assay [1], 4.5 µM in the assay with venous endothelia HUVEC and 28 µM with lung fibroblasts LL47.

Usually IC50 stands for the concentration that inhibits the measured activity by half.
